Experimental data as given in patent US20110250213A1 (JN BIOSCIENCES, published 2011).

Assays:
dog CD122 (dog) = assay: assay not specified
HuD1 (human) [1] = assay: flow cytometry on transfected HEK293 cells, antibody 5 µg/ml
HuD1/HuD2 (human) [2] = assay: flow cytometry on HEK293 cells expressing HuD1/HuD2 and its mutants, antibody 100 ng/ml
HuD1/HuD2 (human) [3] = assay: FACS on HEK293 cells expressing CD122 constructs, PE-labeled goat anti-human IgG
HuD1 (human) [4] = assay: flow cytometry on transfected HEK293 cells
HuD2 (human) = assay: flow cytometry on transfected HEK293 cells
MoD1/HuD2 (mouse; human) = assay: flow cytometry on transfected HEK293 cells
MoD1/MoD2 (mouse) = assay: flow cytometry on transfected HEK293 cells
HuD1/HuD2 (human) [5] = assay: flow cytometry on transfected HEK293 cells, antibody 5 µg/ml
HuD1/MoD2 (human; mouse) = assay: as above

binding (dog CD122 (dog)): no binding | binding (HuD1 (human) [1]): binds | binding (HuD1/HuD2 (human) [2]): binds
B1: ABC2 (antibody, mouse IgG1, V domains shown)
VH: EVKLVESGGGLVQPGGSLRLSCATSGFTFSDFYMEWVRQPPGKRLEWIAASRNKANDYTTEYSASVKGRFIVSRDTSQSILYLQMNALRAEDTAIYYCARSYYRYDGMDYWGQGTSVTVSS
VL: QVVLTQSPVIMSASPGEKVTMTCSAISSVSYMYWYQQKPGSSPRLLIYDTSNLVSGVPVRFSGSGSGTSYSLTISRMEAEDAATYYCQQWNTYPYTFGGGTKLEIK
notes: Mouse IgG1/kappa purified from hybridoma; also called mouse anti-human CD122 monoclonal antibody ABC2

binding (HuD1/HuD2 (human) [3]): binds
B2: HuABC101 (antibody, V domains shown)
VH: QVQLQESGPGLVKPSQTLSLTCTVSGYSITNDNHWWNWIRQHPGKGLEWMGYIDSSGSSDNNPSLKSQITISRDTSKNQLSLKLSSVTAADTAVYYCARGGGRDYYGMDYWGQGTTVTVSS
VL: DIVMTQSPDSLGVSLGERATINCRASQSVSTSSYSYVHWYQQKPGQPPKLLIKYASNLESGVPDRFSGSGSGTDFTLTISSLQAEDVAVYYCQHSWDIPFTFGQGTKLEIK

binding (dog CD122 (dog)): no binding | binding (HuD1 (human) [4]): no binding (tested: 5 µg/ml) | binding (HuD2 (human)): no binding (tested: 5 µg/ml) | binding (MoD1/HuD2 (mouse; human)): no binding (tested: 5 µg/ml) | binding (MoD1/MoD2 (mouse)): no binding (tested: 5 µg/ml) | binding (HuD1/HuD2 (human) [5]): binds | binding (HuD1/MoD2 (human; mouse)): binds | binding (HuD1/HuD2 (human) [2]): binds
B3: ABC101 (antibody, mouse IgG2b, V domains shown)
VH: DVQLQESGPGLVKPSQTVSLTCTVTGYSITNDNHWWNWIRQVSGSKLEWMGYIDSSGSSDNNPSLKSQISITRDTSKNQLFLQLNSVTIEDIGTYYCARGGGRDYYGMDYWGQGTSVTVSS
VL: DIVLTQSPASLAVSLGQRATISCRASQSVSTSSYSYVHWYQQKPGQPPKLLIKYASNLESGVPARFSGSGSGTDFTLNIHPVEEEDTATYYCQHSWDIPFTFGGGTKLEIK
notes: Mouse IgG2b/kappa purified from hybridoma; also called mouse anti-human CD122 monoclonal antibody ABC101

binding (HuD1/HuD2 (human) [3]): binds
B4: HuABC2 (antibody, V domains shown)
VH: EVQLVESGGGLVQPGGSLRLSCAASGFTFSDFYMEWVRQAPGKGLEWIAASRNKANDYTTEYSASVKGRFIVSRDDSKNSLYLQMNSLKTEDTAVYYCARSYYRYDGMDYWGQGTTVTVSS
VL: EIVLTQSPATLSLSPGERATLSCSAISSVSYMYWYQQKPGQAPRLLIYDTSNLVSGVPARFSGSGSGTDYTLTISSLEPEDFAVYYCQQWNTYPYTFGGGTKVEIK

Results are given in words; binding and its absence hold for the method and conditions named. For some of these results: A result given as binding can be weak or reduced; the word gives no strength. One block for each binder: values may come before it.
